Laboratory results reported in the supplement of paper PMC10849652.
Some of the results follow.

The chains behind the UniProt entries cited, without tags or fusion partners. Where a name states a change or a piece, a line headed by the entry shows the natural chain unless it says otherwise.
UniProt O76094: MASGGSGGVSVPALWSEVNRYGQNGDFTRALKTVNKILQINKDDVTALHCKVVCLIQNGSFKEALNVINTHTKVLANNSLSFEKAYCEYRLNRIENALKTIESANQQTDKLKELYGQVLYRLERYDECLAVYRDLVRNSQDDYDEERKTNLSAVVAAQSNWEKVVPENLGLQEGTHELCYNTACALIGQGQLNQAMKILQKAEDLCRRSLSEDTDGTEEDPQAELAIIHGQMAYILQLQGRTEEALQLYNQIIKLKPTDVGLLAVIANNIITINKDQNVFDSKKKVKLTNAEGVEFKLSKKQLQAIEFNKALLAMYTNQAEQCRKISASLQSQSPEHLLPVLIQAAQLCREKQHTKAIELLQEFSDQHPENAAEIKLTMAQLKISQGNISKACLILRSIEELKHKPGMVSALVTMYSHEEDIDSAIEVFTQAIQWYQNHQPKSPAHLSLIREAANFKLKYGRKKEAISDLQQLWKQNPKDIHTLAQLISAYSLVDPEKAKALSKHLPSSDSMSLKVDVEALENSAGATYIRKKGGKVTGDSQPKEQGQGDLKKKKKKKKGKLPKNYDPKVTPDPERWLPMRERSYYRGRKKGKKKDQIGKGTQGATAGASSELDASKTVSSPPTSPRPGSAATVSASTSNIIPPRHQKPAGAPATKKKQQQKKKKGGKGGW
UniProt Q96JI7: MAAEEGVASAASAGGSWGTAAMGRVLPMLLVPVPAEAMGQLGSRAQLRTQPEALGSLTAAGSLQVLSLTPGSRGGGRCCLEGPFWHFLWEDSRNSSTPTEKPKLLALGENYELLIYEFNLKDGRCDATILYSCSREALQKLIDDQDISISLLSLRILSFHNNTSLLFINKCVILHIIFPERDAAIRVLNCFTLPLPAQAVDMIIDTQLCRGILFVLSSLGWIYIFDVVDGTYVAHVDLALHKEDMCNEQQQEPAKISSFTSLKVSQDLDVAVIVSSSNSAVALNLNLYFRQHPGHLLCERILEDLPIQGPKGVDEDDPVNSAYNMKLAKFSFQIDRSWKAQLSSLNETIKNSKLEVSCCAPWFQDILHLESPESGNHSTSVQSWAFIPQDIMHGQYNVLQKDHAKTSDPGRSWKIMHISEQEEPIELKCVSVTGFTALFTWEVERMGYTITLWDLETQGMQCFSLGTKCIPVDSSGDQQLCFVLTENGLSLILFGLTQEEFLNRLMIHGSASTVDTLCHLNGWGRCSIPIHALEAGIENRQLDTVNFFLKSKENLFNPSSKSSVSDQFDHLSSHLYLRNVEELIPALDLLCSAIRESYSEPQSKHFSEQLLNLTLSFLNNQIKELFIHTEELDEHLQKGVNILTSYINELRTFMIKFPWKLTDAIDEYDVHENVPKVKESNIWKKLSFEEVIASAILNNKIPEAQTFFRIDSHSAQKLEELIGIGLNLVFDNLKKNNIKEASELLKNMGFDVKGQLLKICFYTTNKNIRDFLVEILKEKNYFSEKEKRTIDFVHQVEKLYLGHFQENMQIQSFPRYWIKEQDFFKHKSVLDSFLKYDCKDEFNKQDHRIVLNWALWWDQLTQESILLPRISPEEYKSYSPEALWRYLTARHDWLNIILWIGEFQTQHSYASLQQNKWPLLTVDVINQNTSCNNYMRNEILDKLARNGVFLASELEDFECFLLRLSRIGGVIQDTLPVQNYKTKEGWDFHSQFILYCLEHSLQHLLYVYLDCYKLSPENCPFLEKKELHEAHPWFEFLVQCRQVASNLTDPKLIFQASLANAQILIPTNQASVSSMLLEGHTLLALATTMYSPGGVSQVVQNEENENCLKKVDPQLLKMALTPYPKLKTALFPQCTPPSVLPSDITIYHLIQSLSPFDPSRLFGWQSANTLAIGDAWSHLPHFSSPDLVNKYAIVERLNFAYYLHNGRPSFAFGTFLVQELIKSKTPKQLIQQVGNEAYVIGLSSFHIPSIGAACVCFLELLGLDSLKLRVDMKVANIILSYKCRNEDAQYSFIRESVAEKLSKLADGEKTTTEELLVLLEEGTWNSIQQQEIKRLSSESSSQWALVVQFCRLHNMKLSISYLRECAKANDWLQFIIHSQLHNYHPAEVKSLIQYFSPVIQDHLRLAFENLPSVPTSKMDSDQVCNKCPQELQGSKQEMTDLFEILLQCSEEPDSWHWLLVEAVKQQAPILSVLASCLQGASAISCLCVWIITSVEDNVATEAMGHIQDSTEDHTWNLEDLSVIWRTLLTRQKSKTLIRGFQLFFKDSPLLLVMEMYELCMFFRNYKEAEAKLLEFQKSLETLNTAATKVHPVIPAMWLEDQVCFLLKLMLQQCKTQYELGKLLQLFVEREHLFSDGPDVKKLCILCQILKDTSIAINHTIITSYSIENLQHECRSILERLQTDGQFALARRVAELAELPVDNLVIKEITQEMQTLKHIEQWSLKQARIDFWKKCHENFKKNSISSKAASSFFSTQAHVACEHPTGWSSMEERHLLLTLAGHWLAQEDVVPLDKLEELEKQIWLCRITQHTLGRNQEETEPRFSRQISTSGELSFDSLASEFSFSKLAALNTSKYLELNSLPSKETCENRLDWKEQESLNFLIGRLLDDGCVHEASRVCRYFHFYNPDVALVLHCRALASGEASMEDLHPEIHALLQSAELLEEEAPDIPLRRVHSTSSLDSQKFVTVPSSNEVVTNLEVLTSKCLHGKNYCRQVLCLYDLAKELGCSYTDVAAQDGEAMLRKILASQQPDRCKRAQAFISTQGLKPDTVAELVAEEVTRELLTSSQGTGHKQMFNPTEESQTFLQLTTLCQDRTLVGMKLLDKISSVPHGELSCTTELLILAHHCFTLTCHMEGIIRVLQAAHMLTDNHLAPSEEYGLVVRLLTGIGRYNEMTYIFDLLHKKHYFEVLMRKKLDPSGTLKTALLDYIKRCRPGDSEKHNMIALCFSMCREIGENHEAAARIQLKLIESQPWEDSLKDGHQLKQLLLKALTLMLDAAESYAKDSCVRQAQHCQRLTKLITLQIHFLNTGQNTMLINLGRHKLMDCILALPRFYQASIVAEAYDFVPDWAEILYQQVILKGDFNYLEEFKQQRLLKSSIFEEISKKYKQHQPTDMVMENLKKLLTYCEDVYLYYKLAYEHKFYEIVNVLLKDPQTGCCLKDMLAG
UniProt Q8N5C6: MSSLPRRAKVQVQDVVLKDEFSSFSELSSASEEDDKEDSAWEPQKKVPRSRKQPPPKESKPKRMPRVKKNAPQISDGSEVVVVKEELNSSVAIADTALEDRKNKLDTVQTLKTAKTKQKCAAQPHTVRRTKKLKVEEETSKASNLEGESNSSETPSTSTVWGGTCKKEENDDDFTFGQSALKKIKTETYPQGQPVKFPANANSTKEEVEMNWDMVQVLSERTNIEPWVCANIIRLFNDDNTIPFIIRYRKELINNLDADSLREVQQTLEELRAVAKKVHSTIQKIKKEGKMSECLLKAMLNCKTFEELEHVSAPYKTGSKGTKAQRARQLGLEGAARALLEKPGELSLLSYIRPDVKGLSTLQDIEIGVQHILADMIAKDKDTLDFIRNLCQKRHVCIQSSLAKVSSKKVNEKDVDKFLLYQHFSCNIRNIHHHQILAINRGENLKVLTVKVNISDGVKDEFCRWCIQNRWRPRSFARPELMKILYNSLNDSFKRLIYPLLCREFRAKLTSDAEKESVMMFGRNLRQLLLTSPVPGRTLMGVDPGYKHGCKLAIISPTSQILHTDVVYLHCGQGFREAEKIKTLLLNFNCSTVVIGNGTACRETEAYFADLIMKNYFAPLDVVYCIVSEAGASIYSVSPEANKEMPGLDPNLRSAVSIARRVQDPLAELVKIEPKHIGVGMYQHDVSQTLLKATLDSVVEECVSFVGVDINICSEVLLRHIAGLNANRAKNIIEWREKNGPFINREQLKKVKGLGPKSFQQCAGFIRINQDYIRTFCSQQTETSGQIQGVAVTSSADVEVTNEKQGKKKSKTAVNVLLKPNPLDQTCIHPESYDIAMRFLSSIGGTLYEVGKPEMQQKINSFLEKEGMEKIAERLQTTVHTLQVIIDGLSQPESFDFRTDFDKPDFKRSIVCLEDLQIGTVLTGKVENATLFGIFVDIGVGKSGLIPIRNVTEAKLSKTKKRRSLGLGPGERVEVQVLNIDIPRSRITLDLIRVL
UniProt Q69YQ0: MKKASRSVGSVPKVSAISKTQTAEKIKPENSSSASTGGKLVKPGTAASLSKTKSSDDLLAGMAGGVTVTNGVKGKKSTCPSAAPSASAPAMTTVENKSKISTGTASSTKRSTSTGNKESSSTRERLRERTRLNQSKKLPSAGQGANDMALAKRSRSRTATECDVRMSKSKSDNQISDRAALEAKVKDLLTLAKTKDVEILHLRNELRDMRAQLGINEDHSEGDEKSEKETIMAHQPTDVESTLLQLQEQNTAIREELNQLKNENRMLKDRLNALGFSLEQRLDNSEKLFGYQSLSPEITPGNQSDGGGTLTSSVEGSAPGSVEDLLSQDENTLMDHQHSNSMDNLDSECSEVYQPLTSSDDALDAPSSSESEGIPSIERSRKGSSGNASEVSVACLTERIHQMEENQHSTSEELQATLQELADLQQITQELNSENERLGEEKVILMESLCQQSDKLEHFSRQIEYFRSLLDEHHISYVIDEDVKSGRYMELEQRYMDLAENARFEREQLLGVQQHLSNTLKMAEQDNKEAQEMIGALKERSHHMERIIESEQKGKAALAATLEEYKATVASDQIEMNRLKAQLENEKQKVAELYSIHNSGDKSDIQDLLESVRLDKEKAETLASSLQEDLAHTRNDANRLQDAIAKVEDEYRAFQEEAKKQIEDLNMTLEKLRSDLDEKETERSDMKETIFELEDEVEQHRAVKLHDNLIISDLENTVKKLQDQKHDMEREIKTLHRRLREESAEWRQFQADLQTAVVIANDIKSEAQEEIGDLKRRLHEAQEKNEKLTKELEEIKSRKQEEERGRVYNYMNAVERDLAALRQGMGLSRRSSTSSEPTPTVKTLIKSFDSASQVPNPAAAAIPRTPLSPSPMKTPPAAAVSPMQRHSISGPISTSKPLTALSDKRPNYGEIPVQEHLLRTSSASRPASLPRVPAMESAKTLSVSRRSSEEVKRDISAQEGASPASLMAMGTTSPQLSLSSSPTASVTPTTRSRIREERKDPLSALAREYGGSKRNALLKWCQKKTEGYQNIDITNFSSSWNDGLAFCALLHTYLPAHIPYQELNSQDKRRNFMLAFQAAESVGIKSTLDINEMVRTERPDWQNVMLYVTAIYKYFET
UniProt P61011: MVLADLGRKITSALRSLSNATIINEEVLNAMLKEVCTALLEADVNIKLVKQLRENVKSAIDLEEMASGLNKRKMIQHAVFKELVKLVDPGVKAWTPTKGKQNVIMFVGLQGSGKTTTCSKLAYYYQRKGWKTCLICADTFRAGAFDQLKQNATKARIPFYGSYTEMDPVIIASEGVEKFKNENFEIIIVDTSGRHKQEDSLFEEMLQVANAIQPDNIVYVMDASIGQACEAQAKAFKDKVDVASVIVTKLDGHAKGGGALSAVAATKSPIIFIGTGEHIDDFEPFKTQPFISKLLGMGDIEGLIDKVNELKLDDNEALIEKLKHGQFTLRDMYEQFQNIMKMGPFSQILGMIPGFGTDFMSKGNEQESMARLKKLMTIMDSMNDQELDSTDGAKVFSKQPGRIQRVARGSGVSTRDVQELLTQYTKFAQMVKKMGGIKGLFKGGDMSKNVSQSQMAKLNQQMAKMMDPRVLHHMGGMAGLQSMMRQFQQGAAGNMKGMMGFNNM
UniProt Q8NBT2: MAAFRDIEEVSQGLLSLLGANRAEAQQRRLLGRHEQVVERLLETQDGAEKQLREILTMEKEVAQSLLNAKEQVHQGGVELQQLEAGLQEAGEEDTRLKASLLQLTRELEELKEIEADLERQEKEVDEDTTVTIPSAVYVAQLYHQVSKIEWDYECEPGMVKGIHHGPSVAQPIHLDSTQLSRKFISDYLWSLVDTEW
UniProt Q01130: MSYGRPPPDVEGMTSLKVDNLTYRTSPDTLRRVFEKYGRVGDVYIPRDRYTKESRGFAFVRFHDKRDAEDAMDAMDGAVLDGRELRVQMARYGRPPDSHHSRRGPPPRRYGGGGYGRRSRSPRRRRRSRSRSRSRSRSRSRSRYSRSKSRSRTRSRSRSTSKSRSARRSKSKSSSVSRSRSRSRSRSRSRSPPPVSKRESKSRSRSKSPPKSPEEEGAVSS
UniProt P84103: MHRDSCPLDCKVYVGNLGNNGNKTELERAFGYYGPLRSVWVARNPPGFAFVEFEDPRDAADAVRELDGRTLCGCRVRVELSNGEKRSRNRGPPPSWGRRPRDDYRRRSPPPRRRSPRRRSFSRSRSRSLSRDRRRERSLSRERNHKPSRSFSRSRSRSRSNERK
UniProt P51571: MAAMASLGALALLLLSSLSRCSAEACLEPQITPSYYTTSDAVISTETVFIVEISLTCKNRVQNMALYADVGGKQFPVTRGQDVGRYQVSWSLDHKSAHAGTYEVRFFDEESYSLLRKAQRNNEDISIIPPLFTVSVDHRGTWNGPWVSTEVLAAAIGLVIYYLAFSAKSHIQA

Tests used:
Test in all cases: log2 fold change, soluble protein after heating vs DMSO (PISA); higher = thermal stabilisation; K562 lysate, 10 uM; active = over 0.2 and 3.5 SD of the protein, either way, in both replicates (recomputed)
[1] = compound: CS(=O)(=O)CCNCc1ccc(-c2ccc3ncnc(Nc4ccc(OCc5cccc(F)c5)c(Cl)c4)c3c2)o1 [lapatinib]
In short: (§1)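 Values give the log-two fold change in thermal stability against solvent controls, from duplicates. Crude K562 extract at 1 mg/mL protein, made by dounce homogenisation in PBS pH 7.4 with 1 mM MgCl2, was treated with 10 μM compound for 30 min. After 3 min heating across 48°C-58°C, aliquots were pooled, adjusted to 0.5% NP-40 at 4°C and centrifuged at 21,000xg for 90 min. The supernatant was measured by TMTpro 16plex LC-MS/MS with channel sums equalised.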

[2] = compound: CS(=O)(=O)N1CCN(Cc2cc3nc(-c4cccc5[nH]ncc45)nc(N4CCOCC4)c3s2)CC1 [pictilisib]
In short: as §1

[3] = compound: C[C@@H](Oc1cc(-c2cnn(C3CCNCC3)c2)cnc1N)c1c(Cl)ccc(F)c1Cl [crizotinib]
In short: as §1

[4] = compound: C[C@H](C1=CC=C(C=C1)C(=O)NC2=C3C=CNC3=NC=C2)N
In short: as §1

[5] = compound: C[C@H](Nc1ncnc2nc[nH]c12)c1cc2cccc(Cl)c2c(=O)n1-c1ccccc1 [duvelisib]
In short: as §1

[6] = compound: Cc1cc(Nc2cc(CN3CCOCC3)c3nc(C)c(Cc4ccc(Cl)cc4F)n3n2)n[nH]1 [gandotinib]
In short: as §1

[7] = compound: Cc1cc(Nc2cc(N3CCN(C)CC3)nc(Sc3ccc(NC(=O)C4CC4)cc3)n2)n[nH]1 [tozasertib]
In short: as §1

[8] = compound: Cc1ccc(-n2nc(C(C)(C)C)cc2NC(=O)Nc2ccc(OCCN3CCOCC3)c3ccccc23)cc1 [doramapimod]
In short: as §1

[9] = compound: Cc1ccc(NC(=O)c2ccc(CN3CC[C@H](N(C)C)C3)c(C(F)(F)F)c2)cc1Nc1nccc(-c2cncnc2)n1 [bafetinib]
In short: as §1

[10] = compound: Cc1cccc(CC(=O)N2CCc3c2ccc(-c2cn(C)c4ncnc(N)c24)c3F)n1
In short: as §1

[11] = compound: Cc1cn(-c2cc(NC(=O)c3ccc(C)c(Nc4nccc(-c5cccnc5)n4)c3)cc(C(F)(F)F)c2)cn1 [nilotinib]
In short: as §1

[12] = compound: Cc1nc(Nc2n[nH]c3c2CN(C(=O)N[C@H](CN(C)C)c2ccccc2)C3(C)C)c2sccc2n1
In short: as §1

[13] = compound: Cc1nc(Nc2ncc(C(=O)Nc3c(C)cccc3Cl)s2)cc(N2CCN(CCO)CC2)n1 [dasatinib]
In short: as §1

[14] = compound: Cc1ncc(-c2ccnc(Nc3ccc(S(C)(=O)=O)cc3)n2)n1C(C)C
In short: as §1

[15] = compound: Cn1cc(-c2ccc3c(c2)CCN3C(=O)Cc2cccc(C(F)(F)F)c2)c2c(N)ncnc21
In short: as §1

[16] = compound: Cn1cc(CNCC2CCN(c3ncc(C(=O)NO)cn3)CC2)c2ccccc21 [quisinostat]
In short: as §1

[17] = compound: Cn1cncc1[C@@](N)(c1ccc(Cl)cc1)c1ccc2c(c1)c(-c1cccc(Cl)c1)cc(=O)n2C [tipifarnib]
In short: as §1

[18] = compound: NC(=O)Nc1cc(-c2cccc(F)c2)sc1C(=O)N[C@H]1CCCNC1
In short: as §1

[19] = compound: NC(=O)c1cnc(N[C@@H]2CCCC[C@@H]2N)nc1Nc1cccc(-n2nccn2)c1
In short: as §1

[20] = compound: NC1(c2ccc(-c3nc4ccn5c(=O)[nH]nc5c4cc3-c3ccccc3)cc2)CCC1
In short: as §1

Target | log2 fold change [1] | log2 fold change [2] | log2 fold change [3] | log2 fold change [4] | log2 fold change [5] | log2 fold change [6] | log2 fold change [7] | log2 fold change [8] | log2 fold change [9] | log2 fold change [10] | log2 fold change [11] | log2 fold change [12] | log2 fold change [13] | log2 fold change [14] | log2 fold change [15] | log2 fold change [16] | log2 fold change [17] | log2 fold change [18] | log2 fold change [19] | log2 fold change [20]
SPRYD4 (UniProt Q8WW59) | inactive: -0.046 | inactive: -0.003 | inactive: -0.059 | inactive: -0.081 | inactive: -0.009 | inactive: 0.047 | inactive: 0.005 | inactive: 0.008 | inactive: -0.071 | inactive: 0.086 | inactive: -0.015 | inactive: 0.004 | inactive: -0.007 | inactive: 0.004 | inactive: 0.005 | inactive: 0.001 | inactive: 0.01 | inactive: -0.022 | inactive: 0.027 | inactive: -0.017
SPRYD7 (UniProt Q5W111) | inactive: -0.062 | inactive: 0.009 | inactive: 0.009 | inactive: -0.048 | inactive: -0.048 | inactive: 0.043 | inactive: 0.01 | inactive: -0.039 | inactive: -0.061 | inactive: 0.143 | inactive: -0.013 | inactive: 0.055 | inactive: -0.119 | inactive: -0.023 | inactive: -0.007 | inactive: 0.047 | inactive: 0.039 | inactive: 0.034 | inactive: 0.001 | inactive: -0.039
SRP72 (UniProt O76094) | inactive: 0.003 | inactive: -0.001 | inactive: -0.018 | inactive: 0.001 | inactive: -0.008 | inactive: -0.046 | inactive: -0.017 | inactive: 0.033 | inactive: -0.046 | inactive: -0.009 | inactive: 0.018 | inactive: 0.009 | inactive: -0.034 | inactive: -0.003 | inactive: 0.029 | inactive: -0.015 | inactive: 0.004 | inactive: -0.022 | inactive: -0.008 | inactive: -0.036
SPG11 (UniProt Q96JI7) | inactive: -0.163 | inactive: -0.021 | inactive: -0.102 | inactive: -0.049 | inactive: 0.048 | inactive: 0 | inactive: 0.047 | inactive: 0.024 | inactive: 0.138 | inactive: -0.009 | inactive: -0.024 | inactive: 0.026 | inactive: -0.052 | inactive: 0.026 | inactive: 0.025 | inactive: -0.048 | inactive: -0.007 | inactive: -0.017 | inactive: 0.05 | inactive: -0.046
SRBD1 (UniProt Q8N5C6) | inactive: 0.019 | inactive: -0.022 | inactive: -0.052 | inactive: -0.252 | inactive: -0.006 | inactive: 0.118 | inactive: -0.05 | inactive: 0.018 | inactive: 0.003 | inactive: 0.13 | inactive: 0.003 | inactive: 0.019 | inactive: 0.052 | inactive: 0.055 | inactive: -0.004 | inactive: -0.062 | inactive: 0.055 | inactive: -0.004 | inactive: -0.111 | inactive: -0.101
SPCS3 (UniProt P61009) | inactive: -0.009 | inactive: -0.014 | inactive: 0.018 | inactive: 0.009 | inactive: -0.019 | inactive: -0.116 | inactive: 0.049 | inactive: 0.002 | inactive: 0.026 | inactive: -0.031 | inactive: -0.018 | inactive: 0.031 | inactive: 0.028 | inactive: 0 | inactive: 0.064 | inactive: 0.053 | inactive: -0.022 | inactive: -0.028 | inactive: 0.017 | inactive: 0.004
SPECC1L (UniProt Q69YQ0) | inactive: -0.024 | inactive: -0.009 | inactive: -0.004 | inactive: -0.091 | inactive: -0.012 | inactive: 0.108 | inactive: -0.008 | inactive: 0.015 | inactive: -0.015 | inactive: -0.011 | inactive: -0.011 | inactive: -0.038 | inactive: -0.007 | inactive: 0.009 | inactive: -0.023 | inactive: -0.007 | inactive: 0 | inactive: -0.002 | inactive: 0.008 | inactive: -0.007
SRP54 (UniProt P61011) | inactive: 0.021 | inactive: -0.021 | inactive: 0.019 | inactive: -0.035 | inactive: -0.024 | inactive: 0.039 | inactive: -0.004 | inactive: 0.041 | inactive: -0.029 | inactive: 0.04 | inactive: 0.039 | inactive: 0.006 | inactive: -0.021 | inactive: 0 | inactive: 0.034 | inactive: 0.048 | inactive: -0.047 | inactive: -0.001 | inactive: -0.013 | inactive: -0.015
STAT5B (UniProt P51692) | inactive: 0.029 | inactive: -0.022 | inactive: -0.096 | inactive: -0.05 | inactive: -0.064 | inactive: -0.036 | inactive: 0.011 | inactive: -0.016 | inactive: -0.034 | inactive: 0.03 | inactive: -0.005 | inactive: -0.037 | inactive: 0.047 | inactive: -0.004 | inactive: 0.009 | inactive: -0.038 | inactive: -0.008 | inactive: 0.042 | inactive: -0.021 | inactive: 0.021
SPC24 (UniProt Q8NBT2) | inactive: 0.024 | inactive: 0.043 | inactive: 0.003 | inactive: -0.035 | inactive: -0.005 | inactive: -0.025 | inactive: 0.004 | inactive: 0.004 | inactive: -0.075 | inactive: 0 | inactive: 0.022 | inactive: 0.02 | inactive: -0.023 | inactive: -0.001 | inactive: -0.013 | inactive: 0 | inactive: 0.01 | inactive: -0.053 | inactive: -0.014 | inactive: 0.02
STIL isoform 2 (UniProt Q15468) | inactive: 0.01 | inactive: -0.018 | inactive: 0.013 | inactive: -0.045 | inactive: -0.011 | inactive: 0.035 | inactive: 0.12 | inactive: 0.018 | inactive: -0.105 | inactive: 0.031 | inactive: 0.023 | inactive: 0 | inactive: -0.043 | inactive: -0.012 | inactive: 0.018 | inactive: -0.092 | inactive: 0 | inactive: 0.057 | inactive: -0.047 | inactive: 0.005
SRSF2 (UniProt Q01130) | inactive: 0.015 | inactive: -0.005 | inactive: 0.006 | active: -0.299 | inactive: 0.061 | inactive: 0.079 | inactive: 0.026 | inactive: 0.05 | inactive: -0.016 | inactive: 0.109 | inactive: -0.038 | inactive: 0 | inactive: -0.003 | inactive: -0.029 | inactive: 0.033 | inactive: -0.056 | inactive: 0.01 | inactive: 0.002 | inactive: -0.008 | inactive: -0.01
SRSF3 (UniProt P84103) | inactive: -0.03 | inactive: 0.019 | inactive: 0.025 | inactive: -0.058 | inactive: 0.04 | inactive: -0.057 | inactive: 0.038 | inactive: -0.007 | inactive: 0.038 | inactive: 0.057 | inactive: -0.003 | inactive: -0.028 | inactive: -0.04 | inactive: -0.05 | inactive: 0.007 | inactive: 0.025 | inactive: 0.035 | inactive: -0.117 | inactive: 0.011 | inactive: 0.089
SRSF11 (UniProt Q05519) | inactive: -0.029 | inactive: 0.019 | inactive: 0.051 | inactive: -0.01 | inactive: -0.012 | inactive: -0.046 | inactive: 0.002 | inactive: -0.014 | inactive: 0.008 | inactive: -0.004 | inactive: 0.016 | inactive: -0.046 | inactive: -0.032 | inactive: 0.002 | inactive: -0.008 | inactive: 0.04 | inactive: 0.012 | inactive: -0.036 | inactive: 0.002 | inactive: 0.037
SSR4 (UniProt P51571) | inactive: -0.021 | inactive: -0.074 | inactive: 0.046 | inactive: -0.053 | inactive: 0.006 | inactive: 0.03 | inactive: -0.074 | inactive: 0.006 | inactive: 0.011 | inactive: -0.008 | inactive: 0.008 | inactive: -0.004 | inactive: -0.03 | inactive: -0.009 | inactive: -0.025 | inactive: 0.043 | inactive: -0.017 | inactive: 0.016 | inactive: -0.005 | inactive: 0.013
SRR (UniProt Q9GZT4) | inactive: -0.066 | inactive: -0.04 | inactive: 0.006 | inactive: 0.03 | inactive: -0.043 | inactive: -0.026 | inactive: -0.059 | inactive: 0.033 | inactive: -0.029 | inactive: -0.047 | inactive: -0.094 | inactive: -0.119 | inactive: 0.019 | inactive: 0.081 | inactive: -0.148 | inactive: -0.049 | inactive: 0.047 | inactive: -0.111 | inactive: -0.075 | inactive: -0.072

Complete entries as entered above. Values in the order: log2 fold change [1] | log2 fold change [2] | log2 fold change [3] | log2 fold change [4] | log2 fold change [5] | log2 fold change [6] | log2 fold change [7] | log2 fold change [8] | log2 fold change [9] | log2 fold change [10] | log2 fold change [11] | log2 fold change [12] | log2 fold change [13] | log2 fold change [14] | log2 fold change [15] | log2 fold change [16] | log2 fold change [17] | log2 fold change [18] | log2 fold change [19] | log2 fold change [20]
SRBD1 (UniProt Q8N5C6) is entered as inactive: 0.019 | inactive: -0.022 | inactive: -0.052 | inactive: -0.252 | inactive: -0.006 | inactive: 0.118 | inactive: -0.05 | inactive: 0.018 | inactive: 0.003 | inactive: 0.13 | inactive: 0.003 | inactive: 0.019 | inactive: 0.052 | inactive: 0.055 | inactive: -0.004 | inactive: -0.062 | inactive: 0.055 | inactive: -0.004 | inactive: -0.111 | inactive: -0.101
SRP54 (UniProt P61011) is entered as inactive: 0.021 | inactive: -0.021 | inactive: 0.019 | inactive: -0.035 | inactive: -0.024 | inactive: 0.039 | inactive: -0.004 | inactive: 0.041 | inactive: -0.029 | inactive: 0.04 | inactive: 0.039 | inactive: 0.006 | inactive: -0.021 | inactive: 0 | inactive: 0.034 | inactive: 0.048 | inactive: -0.047 | inactive: -0.001 | inactive: -0.013 | inactive: -0.015
